# Data as given in patent publication US4012395A, “Process for preparing thiazolidinone acetic acid derivatives” (Warner-Lambert Company, priority 1974, dated 1977).
# Key:
# [1] = system: potassium excretion in dogs; assay: Influence on potassium excretion (clearance experiments); type: in vivo, dog; settings: anesthetized dogs, with higher amounts of sodium excreted
# Procedure: Animals were anesthetized by 30.0 mg/kg pentobarbital intravenously. At the beginning of the experiment one saline solution was infused within 1 hour. In the urine which was collected by using a bladder catheter besides other parameters potassium and sodium concentrations were determined by flame photometry.
# [2] = system: potassium excretion; settings: in vivo; cited from earlier work
smiles,measurement,setting,value
NS(=O)(=O)c1cc(C(=O)O)c(NCc2ccco2)cc1Cl [Furosemide],"increase of potassium excretion, Furosemide versus […]",[1],by far more increased with Furosemide than with 3282
same,"effect on potassium excretion, Furosemide (known)",[2],little effect on potassium excretion
